In PubChem BioAssay AID493014 (National Center for Advancing Translational Sciences (NCATS), 2011) one finds AC50 data, which are given here for 18 molecules.

The other results are listed elsewhere or left out. These are further read-outs of the screen, such as a control signal, another cell line or another target. No call is given for them. Most of these compounds were active or inconclusive in the main read-out, so they are no random draw. Words in brackets tell the shape of the fitted curve; partial curves, single points and poor fits give uncertain potencies.

The test can be described thus: qHTS Assay to Find Inhibitors of Chronic Active B-Cell Receptor Signaling. The note with it: ABC-DLBCL IkBa-CBG/CBR reporter, luminescence ratio (green luciferase fused to IkBa over red control in TMD8 lymphoma cells), 4 h; measured here: CBR red luminescence, cell number. The procedure, abridged: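 Compounds up to 46 uM were incubated four hours with TMD8 cells whose green CBG68 luciferase is fused to IkappaBalpha; red CBR luminescence normalised the signal, and concentration-effect curves were fitted to fusion, red and ratio data.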
On the technique in general: In qHTS, concentration-response curves come from the screen itself.
Broadly, the AC50 is the concentration giving half of the maximal activity seen. `Cc1csc(NC(=O)COc2ccc3c(c2)CCC3)n1`: the AC50 was 13 µM [falling, single point]. As for `COCCN(C(=O)c1cccc(N2C(=O)CCC2=O)c1)c1nc(-c2ccc([N+](=O)[O-])cc2)cs1`, the AC50 is 6.51 µM [rising, full curve, poor fit].

Regarding `O=C1Nc2ccc(Br)cc2/C1=N/N=C/C1=C(N2CCOCC2)C(=C\c2ccccc2)/CC1`, the AC50 was 29.1 µM [rising, single point]. For the molecule `CN=C1c2c(-c3ccccc3)c3cc(OC)ccc3n2CCN1C`, the AC50 was 16.4 µM [falling, partial curve]. The result for `O=C(N1CCOCC1)n1nnc2ccccc21` reads 35.5 µM [falling, single point]; that for `C=CCn1c(O)c(C2=c3ccccc3=NC2=O)sc1=Nc1ccc(O)cc1`, 22.4 µM [falling, single point]; that for `O=C(Nc1ccc([N+](=O)[O-])cn1)C1CC1`, 8.2 µM [falling, partial curve, poor fit]. Turning to `Clc1ccc(C2Nc3cccc4cccc(c34)N2)cc1Cl`, the AC50 is 31.6 µM [falling, single point]. As to `COc1ccc(Nc2nc3ccc(C)cc3n3cnnc23)cc1Cl`, the AC50 is 0.794 µM [rising, full curve, poor fit]. For the molecule `O=C(CCc1c[nH]c2ccccc12)NCCc1ccc(Cl)cc1`, the AC50 is 0.1 µM [falling, full curve, poor fit]. Consider `CC(=O)Nc1ccc(-c2csc(Nc3cc(C)ccn3)n2)cc1`, for which the AC50 was 35.5 µM [falling, single point]. On to `CCc1cccc(NC(=O)C2CCCN(c3ncnc4c3nc3n4CCCCC3)C2)c1` (stereo not drawn), for which the AC50 was 4.47 µM [rising, single point]. As for `O=C(Nc1ccccc1C(=O)NCCN1CCOCC1)c1ccco1`, the AC50 was 1.64 µM [rising, partial curve, poor fit]. `Cc1nc(-c2ccccc2)nc2sc(C(=O)c3ccc(F)cc3)c(N)c12`: the half-maximal activity concentration (AC50) was 3.98 µM [rising, partial curve, poor fit]. The figure for `CC(=O)COc1ccc2c3c(c(=O)oc2c1C)CCCCC3` is 5.8 µM [rising, partial curve, poor fit]; for `COc1ccccc1C(=O)N/N=C(\C)CC(=O)Nc1ccc2c(c1)OCCO2` it is 2 µM [falling, full curve]; for `O=C(CSc1ccnc(=O)[nH]1)NCc1ccc(F)cc1` it is 0.794 µM [falling, full curve, poor fit]. Consider `O=C(O)c1ccccc1NS(=O)(=O)c1cccc(C(F)(F)F)c1`, for which the AC50 was 23.1 µM [rising, single point].
